Test results published in publication doi:10.1101/2025.09.23.678148 (bioRxiv, 2025).
These are yes or no findings as the source states them, for the method shown. For part of these data: Binding seen in cells or lysates may run through a third protein. Some entries that bind do so weakly or less than the wild type.

B1: IRF1 (protein, UniProt P15314 1-329)
chain: MPITRMRMRPWLEMQINSNQIPGLIWINKEEMIFQIPWKHAAKHGWDINKDACLFRSWAIHTGRYKAGEKEPDPKTWKANFRCAMNSLPDIEEVKDQSRNKGSSAVRVYRMLPPLTRNQRKERKSKSSRDTKSKTKRKLCGDVSPDTFSDGLSSSTLPDDHSSYTTQGYLGQDLDMERDITPALSPCVVSSSLSEWHMQMDIIPDSTTDLYNLQVSPMPSTSEAATDEDEEGKIAEDLMKLFEQSEWQPTHIDGKGYLLNEPGTQLSSVYGDFSCKEEPEIDSPRGDIGIGIQHVFTEMKNMDSIMWMDSLLGNSVRLPPSIQAIPCAP
B2: IRF2 (protein, UniProt P23906 1-349)
chain: MPVERMRMRPWLEEQINSNTIPGLKWLNKEKKIFQIPWMHAARHGWDVEKDAPLFRNWAIHTGKHQPGIDKPDPKTWKANFRCAMNSLPDIEEVKDRSIKKGNNAFRVYRMLPLSERPSKKGKKPKTEKEERVKHIKQEPVESSLGLSNGVSGFSPEYAVLTSAIKNEVDSTVNIIVVGQSHLDSNIEDQEIVTNPPDICQVVEVTTESDDQPVSMSELYPLQISPVSSYAESETTDSVASDEENAEGRPHWRKRSIEGKQYLSNMGTRNTYLLPSMATFVTSNKPDLQVTIKEDSCPMPYNSSWPPFTDLPLPAPVTPTPSSSRPDRETRASVIKKTSDITQARVKSC
B3: recombinant mouse SPOP (aa28-329) (domain or fragment, UniProt Q6ZWS8 28-329, looked up)
chain: KVVKFSYMWTINNFSFCREEMGEVIKSSTFSSGANDKLKWCLRVNPKGLDEESKDYLSLYLLLVSCPKSEVRAKFKFSILNAKGEETKAMESQRAYRFVQGKDWGFKKFIRRDFLLDEANGLLPDDKLTLFCEVSVVQDSVNISGQNTMNMVKVPECRLADELGGLWENSRFTDCCLCVAGQEFQAHKAILAARSPVFSAMFEHEMEESKKNRVEINDVEPEVFKEMMCFIYTGKAPNLDKMADDLLAAADKYALERLKVMCEDALCSNLSVENAAEILILADLHSADQLKTQAVDFINYHA

How the values were obtained:
co-IP = substrate: SPOP (mouse (endogenous in BMDMs)) (UniProt Q6ZWS8); experiment: co-IP
[1] = target: T1, recombinant full-length mouse IRF2 (mouse) (UniProt P23906); experiment: native gel or EMSA
T1 sequence: B2 chain

| Binder | binding (co-IP) | binding [1] |
| --- | --- | --- |
| B1 | binds |  |
| B2 | no binding |  |
| B3 |  | no binding |
